The values that follow come from the supplement of paper PMC4962491.

Where “and” joins values, the source holds several entries; their conditions need not be identical. Identical values can stand only once. Counter-ions that a name gives are not always drawn. ± gives the standard deviation of the averaged measurements. The list shows a part of the results, in another mix than the full data. Single values are uncertain here, since repeats match poorly.

The test system of the assay is FaDu. The assay is described as follows: mitochondrial oxygen consumption rate normalised to cell number, Z score over the library; higher = higher oxygen consumption (negative = OCR reduction). Conditions: treatment time 24 h, assay medium: 5 mM galactose, 5 mM pyruvate, 4 mM glutamine. The protocol: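 Primary screen: FaDu cells were incubated 24 h with Pharmakon 1600 / TDI oncology set compounds at 2 or 10 uM. Mitochondrial-specific OCR (basal minus 2 uM antimycin A) was measured on a Seahorse XF96 in assay medium with 5 mM galactose, 5 mM pyruvate and 4 mM glutamine, then corrected for Hoechst cell number and expressed as a Z score […]. Compounds that cut cell number by >66% were excluded. Two repeats.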

Consider `CNNCc1ccc(C(=O)NC(C)C)cc1`, for which the “mitochondrial oxygen consumption rate normalised” value runs as follows: (2 µM) 0.067 ± 0.56; (10 µM) 0.342 ± 0.2.

On to `CNNCc1ccc(C(=O)NC(C)C)cc1` [Procarbazine HCl], for which the “mitochondrial oxygen consumption rate normalised” value (2 µM) came out at 1.3 ± 0.2 and the “mitochondrial oxygen consumption rate normalised” value (10 µM) is 0.127 ± 0.26.

`O=c1[nH]c(=O)n([C@H]2C[C@H](O)[C@@H](CO)O2)cc1F`: under “2 µM”, the “mitochondrial oxygen consumption rate normalised” value is -1.01 ± 0.66.

Consider `O=c1[nH]c(=O)n([C@H]2C[C@H](O)[C@@H](CO)O2)cc1F` [Floxuridine], for which, under “2 µM”, the “mitochondrial oxygen consumption rate normalised” value was determined as 0.21 ± 0.59.

In the case of `CN(C)CCC=C1c2ccccc2C=Cc2ccccc21`, under “2 µM”, the “mitochondrial oxygen consumption rate normalised” value was -0.137 ± 0.42.

Turning to `CN(C)CCc1c[nH]c2ccc(C[C@H]3COC(=O)N3)cc12`, the “mitochondrial oxygen consumption rate normalised” value reads like this: (2 µM) 0.903 ± 0.19; (10 µM) 0.529 ± 0.45.

Consider `NS(=O)(=O)c1cc2c(cc1Cl)NCNS2(=O)=O`, for which the “mitochondrial oxygen consumption rate normalised” value (2 µM) is -0.974 ± 0.16.

For the compound `CC1CCC(NC(=O)N(CCCl)N=O)CC1` (centres undefined), where the note is “2 µM”, the “mitochondrial oxygen consumption rate normalised” value is 0.727 ± 2.

`Oc1ccc(O)cc1`: for the setting “2 µM”, the “mitochondrial oxygen consumption rate normalised” value stood at 0.395 ± 0.35.

Take `Nc1ccc(S(=O)(=O)Nc2ccc(Cl)nn2)cc1`: the “mitochondrial oxygen consumption rate normalised” value (2 µM) stood at 0.254 ± 0.034.

In the case of `Cc1cc2nc3ccc(N(C)C)cc3[s+]c2cc1N`, the “mitochondrial oxygen consumption rate normalised” value (2 µM) is -0.0114 ± 0.47.

Regarding `CN(C)CCCOc1nn(Cc2ccccc2)c2ccccc12`, the “mitochondrial oxygen consumption rate normalised” value (2 µM) is -0.169 ± 0.47.

On to `CC(=O)OCC(=O)[C@@]1(O)CC[C@H]2[C@@H]3CCC4=CC(=O)C=C[C@]4(C)[C@@]3(F)[C@@H](O)C[C@@]21C`, for which the “mitochondrial oxygen consumption rate normalised” value (2 µM) is 0.687 ± 0.13.

For `CC(=O)OCC(=O)[C@@]1(O)CC[C@H]2[C@@H]3CCC4=CC(=O)CC[C@]4(C)[C@H]3C(=O)C[C@@]21C`, the “mitochondrial oxygen consumption rate normalised” value (2 µM) was -0.495 ± 0.19.

Regarding `COc1cc(C(=O)N2CCOCC2)cc(OC)c1OC`, under “2 µM”, the “mitochondrial oxygen consumption rate normalised” value is 0.485 ± 0.24.

As for `CCCCC(=O)O[C@]1(C(=O)CO)[C@@H](C)C[C@H]2[C@@H]3CCC4=CC(=O)C=C[C@]4(C)[C@@]3(F)[C@@H](O)C[C@@]21C`, the “mitochondrial oxygen consumption rate normalised” value was 0.427 ± 0.75 (2 µM) and -0.0902 ± 0.67 (10 µM).

Regarding `OC[C@@H](O)[C@@H](O)[C@H](O)[C@@H](O)CO`, the “mitochondrial oxygen consumption rate normalised” value (2 µM) is -0.0314 ± 1.1.

For `S=C=Nc1ccc(N=C=S)cc1`, the “mitochondrial oxygen consumption rate normalised” value (2 µM) came to 0.265 ± 0.42.

In the case of `CN(N=O)C(=O)N[C@@H](C=O)[C@@H](O)[C@H](O)[C@H](O)CO` [Streptozocin], the “mitochondrial oxygen consumption rate normalised” value (2 µM) amounted to 0.896 ± 0.4.

Consider `CC(=O)Nc1c(I)c(NC(C)=O)c(I)c(C(=O)O)c1I`, for which the “mitochondrial oxygen consumption rate normalised” value (2 µM) was determined as 0.308 ± 0.5.

With `CCc1cc(C(N)=S)ccn1`, the “mitochondrial oxygen consumption rate normalised” value (2 µM) was found to be 0.148 ± 0.48.

Turning to `CC(=O)Nc1ccc(S(=O)(=O)Nc2ccc([N+](=O)[O-])cc2)cc1`, the “mitochondrial oxygen consumption rate normalised” value (2 µM) came out at 0.921 ± 0.25.

Turning to `Cc1ccc(C(=O)Nc2ccc(S(=O)(=O)O)c3cc(S(=O)(=O)O)cc(S(=O)(=O)O)c23)cc1NC(=O)c1cccc(NC(=O)Nc2cccc(C(=O)Nc3cc(C(=O)Nc4ccc(S(=O)(=O)O)c5cc(S(=O)(=O)O)cc(S(=O)(=O)O)c45)ccc3C)c2)c1`, for the setting “2 µM”, the “mitochondrial oxygen consumption rate normalised” value is -0.6446 ± 0.0052.

On to `NC(=O)c1ncn([C@@H]2O[C@H](CO)[C@@H](O)[C@H]2O)c1O`, for which the “mitochondrial oxygen consumption rate normalised” value (2 µM) came to 0.0431 ± 0.81.

For `O=C(N/N=C/c1ccc([N+](=O)[O-])o1)c1ccc(O)cc1`, the “mitochondrial oxygen consumption rate normalised” value (2 µM) was -0.418 ± 0.44.

`CN1CCN(C(c2ccccc2)c2ccc(Cl)cc2)CC1` (centres undefined): the “mitochondrial oxygen consumption rate normalised” value (2 µM) was -2.86 ± 0.1.

Regarding `CC(C)(O/N=C(\C(=O)N[C@@H]1C(=O)N2C(C(=O)[O-])=C(C[n+]3ccccc3)CS[C@H]12)c1csc(N)n1)C(=O)O`, the “mitochondrial oxygen consumption rate normalised” value (2 µM) was -0.139 ± 0.3.

In the case of `Cc1ccc(/C(=C\CN2CCCC2)c2ccccn2)cc1`, the “mitochondrial oxygen consumption rate normalised” value (2 µM) was 0.486 ± 0.22.

Regarding `CCc1c2c(nc3ccc(OC(=O)N4CCC(N5CCCCC5)CC4)cc13)-c1cc3c(c(=O)n1C2)COC(=O)[C@]3(O)CC`, the “mitochondrial oxygen consumption rate normalised” value is 0.253 ± 0.24 (2 µM); -1.11 and -2.18 (10 µM).

Consider `CCc1c2c(nc3ccc(OC(=O)N4CCC(N5CCCCC5)CC4)cc13)-c1cc3c(c(=O)n1C2)COC(=O)[C@]3(O)CC` [Irinotecan HCl], for which the “mitochondrial oxygen consumption rate normalised” value (2 µM) stood at 1.03 ± 0.98.

For `C[C@H]1[C@H](NC(=O)/C(=N\OC(C)(C)C(=O)O)c2csc(N)n2)C(=O)N1S(=O)(=O)O`, the “mitochondrial oxygen consumption rate normalised” value (2 µM) is 0.0973 ± 0.087.

For the compound `CNCCC=C1c2ccccc2CCc2ccccc21`, under “2 µM”, the “mitochondrial oxygen consumption rate normalised” value is -0.299 ± 0.4.

On to `CCC1=C[C@@H]2CN(C1)Cc1c([nH]c3ccccc13)[C@@](C(=O)OC)(c1cc3c(cc1OC)N(C)[C@H]1[C@@](O)(C(=O)OC)[C@H](OC(C)=O)[C@]4(CC)C=CCN5CC[C@]31[C@@H]54)C2` [Vinorelbine Tartrate], for which the “mitochondrial oxygen consumption rate normalised” value (2 µM) was found to be 1.02 ± 0.14.

Regarding `CNC(=C[N+](=O)[O-])NCCSCc1csc(CN(C)C)n1`, where the note is “2 µM”, the “mitochondrial oxygen consumption rate normalised” value was 0.614 ± 0.48.

As to `CS(=O)(=O)Nc1ccc([N+](=O)[O-])cc1Oc1ccccc1`, the “mitochondrial oxygen consumption rate normalised” value reads like this: (2 µM) 0.154 ± 0.38; (10 µM) 0.196 ± 0.72.

Take `CCn1cc(C(=O)O)c(=O)c2cc(F)c(N3CCNC(C)C3)c(F)c21` (centres undefined): for the setting “2 µM”, the “mitochondrial oxygen consumption rate normalised” value worked out at 0.566 ± 0.04.

In the case of `C[C@]12C=CC(=O)C=C1CC[C@@H]1[C@@H]2C(=O)C[C@@]2(C)[C@H]1CC[C@]2(O)C(=O)CO`, under “2 µM”, the “mitochondrial oxygen consumption rate normalised” value was -0.286 ± 0.23.

Regarding `CCOC(=O)CCC(=O)O[C@H]1[C@H](O[C@@H]2[C@@H](C)[C@H](O[C@H]3C[C@@](C)(OC)[C@@H](O)[C@H](C)O3)[C@@H](C)C(=O)O[C@H](CC)[C@@](C)(O)[C@H](O)[C@@H](C)C(=O)[C@H](C)C[C@@]2(C)O)O[C@H](C)C[C@@H]1N(C)C`, the “mitochondrial oxygen consumption rate normalised” value (2 µM) was -0.682 ± 0.32.

Turning to `C[C@@H]1O[C@@H]1P(=O)(O)O`, the “mitochondrial oxygen consumption rate normalised” value is 0.19 ± 0.14 (2 µM) and 0.794 ± 0.12 (10 µM).

In the case of `C[C@@H]1CN(c2c(F)c(N)c3c(=O)c(C(=O)O)cn(C4CC4)c3c2F)C[C@H](C)N1`, under “2 µM”, the “mitochondrial oxygen consumption rate normalised” value is -0.469 ± 0.24.

Consider `Cc1ccc(S(=O)(=O)NCl)cc1`, for which the “mitochondrial oxygen consumption rate normalised” value (2 µM) is -0.196 ± 0.28.

In the case of `CCn1cc(C(=O)O)c(=O)c2cc(F)c(N3CCN(C)CC3)cc21`, the “mitochondrial oxygen consumption rate normalised” value (2 µM) was -0.569 ± 0.91.
